Experimental data as given in patent publication US20200291075A1 (TRUSTEES OF PRINCETON UNIVERSITY, published 2020).
No constants are given. Whether binding was seen depends on the method and setting. For part of these data: Binding seen in cells or lysates may run through a third protein. Some binding calls cover weakened binding; strength is not graded here. For part of these data: Tags and fused reporters may be left off the sequences shown.

Columns and labels:
His6-YFP-SH2 [1] = target: T1, His6-YFP-SH2 (human, UniProt P00519 112-232); test: pull-down on Co2+ agarose beads with His6-YFP-SH2, crude chimera lysate, light or dark, imidazole elution, SDS-PAGE
T1 construct: domain: SH2 domain; also called 6xHis-YFP-protein fusion
T1 sequence (looked up): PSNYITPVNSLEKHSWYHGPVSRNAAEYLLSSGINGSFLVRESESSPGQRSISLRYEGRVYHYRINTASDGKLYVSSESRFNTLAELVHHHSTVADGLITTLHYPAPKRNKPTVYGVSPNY

His6-YFP-SH2 [2] = target: T1, His6-YFP-SH2; test: pull-down on His6-YFP-SH2 cobalt beads, SDS-PAGE
His6-YFP-SH2 [3] = target: T1, His6-YFP-SH2; test: pull-down on His6-YFP-SH2 cobalt beads; binds preferentially in the dark
His6-YFP-SH2 [4] = target: T1, His6-YFP-SH2; test: pull-down on immobilized 6xHis-YFP target, SDS-PAGE gel
SH3 = test: pull-down on cobalt beads with the immobilized bait (band labelled SH3), light (L) or dark (D), imidazole elution, SDS-PAGE
YFP-SH2 [5] = target: T2, YFP-SH2 (human, UniProt P00519 112-232); test: bio-layer interferometry, His-tagged binder on Ni-NTA sensors, YFP-SH2 as ligand, dark conformation (450 nm light, Supplementary Table 2)
T2 construct: domain: SH2 domain; also called SH2-tagged YFP; EZ-L703
T2 sequence (looked up): T1 sequence (looked up)

YFP-SH2 [6] = target: T2, YFP-SH2; test: bio-layer interferometry, His-tagged OptoMB on Ni-NTA sensors, YFP-SH2 as ligand
YFP-SH2 [7] = target: T2, YFP-SH2; test: bio-layer interferometry, His-tagged binder on Ni-NTA sensors, YFP-SH2 as ligand, dark conformation

Measured: binding

B1: HA4-AsLOV2 chimera, SS58 insertion, untagged (OptoMB) (designed binder)
chain: GSSVSSVPTKLEVVAATPTSLLISWDAPMSSSSVYYYRITYGETGGNSPVQEFTVPYSGLERIEKNFVITDPRLPDNPIIFASDSFLQLTEYSREEILGRNCRFLQGPETDRATVRKIRDAIDNQTEVTVQLINYTKSGKKFWNLFHLQPMRDQKGDVQYFIGVQLDGTEHVRDAAEREGVMLIKKTAENIDEAAGSSTATISGLSPGVDYTITVYAWGEDSAGYMFMYSPISINYRTC
notes: Used as crude E. coli extract in the pull-down screen; also called alphaSH2 OptoMonobody; EZ-L706
binds: His6-YFP-SH2 [1] | His6-YFP-SH2 [2] | His6-YFP-SH2 [3] | His6-YFP-SH2 [4] | SH3

B2: HA4-AsLOV2 chimera, SS59 insertion (designed binder)
chain: GSSVSSVPTKLEVVAATPTSLLISWDAPMSSSSVYYYRITYGETGGNSPVQEFTVPYSSGLERIEKNFVITDPRLPDNPIIFASDSFLQLTEYSREEILGRNCRFLQGPETDRATVRKIRDAIDNQTEVTVQLINYTKSGKKFWNLFHLQPMRDQKGDVQYFIGVQLDGTEHVRDAAEREGVMLIKKTAENIDEAAGSTATISGLSPGVDYTITVYAWGEDSAGYMFMYSPISINYRTC
binds: His6-YFP-SH2 [1] | His6-YFP-SH2 [2]

B3: HA4-AsLOV2 chimera, MS29 insertion with residues 30-32 removed (designed binder)
chain: GSSVSSVPTKLEVVAATPTSLLISWDAPMGLERIEKNFVITDPRLPDNPIIFASDSFLQLTEYSREEILGRNCRFLQGPETDRATVRKIRDAIDNQTEVTVQLINYTKSGKKFWNLFHLQPMRDQKGDVQYFIGVQLDGTEHVRDAAEREGVMLIKKTAENIDEAAGSVYYYRITYGETGGNSPVQEFTVPYSSSTATISGLSPGVDYTITVYAWGEDSAGYMFMYSPISINYRTC
binds: His6-YFP-SH2 [1] | His6-YFP-SH2 [2] | His6-YFP-SH2 [3]

B4: HA4-AsLOV2 chimera, SS30 insertion (designed binder)
chain: GSSVSSVPTKLEVVAATPTSLLISWDAPMSGLERIEKNFVITDPRLPDNPIIFASDSFLQLTEYSREEILGRNCRFLQGPETDRATVRKIRDAIDNQTEVTVQLINYTKSGKKFWNLFHLQPMRDQKGDVQYFIGVQLDGTEHVRDAAEREGVMLIKKTAENIDEAAGSSSVYYYRITYGETGGNSPVQEFTVPYSSSTATISGLSPGVDYTITVYAWGEDSAGYMFMYSPISINYRTC
binds: His6-YFP-SH2 [1] | His6-YFP-SH2 [2]

B5: OptoMBC450V (designed binder)
chain: HHHHHHSSGENLYFQGHASGSSVSSVPTKLEVVAATPTSLLISWDAPMSSSSVYYYRITYGETGGNSPVQEFTVPYSGLERIEKNFVITDPRLPDNPIIFASDSFLQLTEYSREEILGRNVRFLQGPETDRATVRKIRDAIDNQTEVTVQLINYTKSGKKFWNLFHLQPMRDQKGDVQYFIGVQLDGTEHVRDAAEREGVMLIKKTAENIDEAAGSSTATISGLSPGVDYTITVYAWGEDSAGYMFMYSPISINYRTC
notes: also called OptoMBC450V 1; OptoMBC450V 2
binds: YFP-SH2 [5] | YFP-SH2 [6] | YFP-SH2 [7]
